According to patent US20150346208A1 (SPRING BIOSCIENCE, published 2015):
No constants are given. Whether binding was seen depends on the method and setting. Some binding calls cover weakened binding; strength is not graded here.

By UniProt entry, the sequences of proteins in these tests, tags left out. Residues count along the entry.
UniProt Q9NZQ7, residues 19-290: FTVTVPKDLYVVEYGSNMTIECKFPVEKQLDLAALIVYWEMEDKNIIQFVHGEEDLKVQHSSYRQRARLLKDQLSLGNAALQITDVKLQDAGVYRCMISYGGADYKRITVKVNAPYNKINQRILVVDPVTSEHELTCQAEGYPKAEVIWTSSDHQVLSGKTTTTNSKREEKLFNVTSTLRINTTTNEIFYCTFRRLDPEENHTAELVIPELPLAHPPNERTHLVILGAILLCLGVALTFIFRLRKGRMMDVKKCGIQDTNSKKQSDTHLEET

Key:
[1] = target: T1, human PD-L1 (Programmed death ligand-1) (human, UniProt Q9NZQ7 19-290); assay: IHC on FFPE placenta, 0.9 µg/ml
T1 construct: whole, on cells; Endogenous protein; For IHC it was in formalin-fixed, paraffin-embedded tissue sections; for the Western blot it was in SDS-PAGE-fractionated cell lysates (45-55 kDa band); also called B7-H1; PDCD1L1
Procedure: Rabbit anti-human PD-L1 monoclonal antibodies SP263, J45H2L4 and J27H6L4 were applied onto formalin-fixed paraffin embedded (FFPE) tissue samples to assess the staining patterns of these antibodies. Tissue samples include placenta (positive control), stomach (negative control) and colon. Immunohistochemistry was performed on BenchMark Ultra (Ventana Medical System) using StdCC1 cell conditioning and standard Opt iView DAB detection protocol. Each primary antibody was incubated at 0.9 μg/ml for 16 min.

[2] = target: T1, human PD-L1 (Programmed death ligand-1); assay: IHC on FFPE placenta (legend of FIG. 4G)

B1: J27H6L4 rabbit anti-human PD-L1 monoclonal antibody (antibody, V domains shown)
VH: QSLEESGGRLVTPGTPLTLTCTVSGFSLSSHAISWVRQAPGKGLEWIGTINSDSHTYYATWAKGRFTSSKTSTTVDLKLTSPTTEDTATYFCARRIFSSSNIWGPGTLVTVSS
VL: VMTQTSSPVSAAVGGTVTINCQASQSIYNNNWLSWFQQKPGQPPKLLIYLASTLASGVPSRFKGSGSGTQSTLTISDVVCDDAATYYCIGGESSNTDGIAFGGGTEVVVE
[1]
  binding: binds
[2]
  binding: binds
